These are yes or no findings as the source states them, for the method shown. Binding seen in cells or lysates may run through a third protein. Here binding means that the protein was enriched with, or labelled near, the bait; the list need not be complete.

Amino acid sequences for entries named in this document (tags omitted).
UniProt O43149: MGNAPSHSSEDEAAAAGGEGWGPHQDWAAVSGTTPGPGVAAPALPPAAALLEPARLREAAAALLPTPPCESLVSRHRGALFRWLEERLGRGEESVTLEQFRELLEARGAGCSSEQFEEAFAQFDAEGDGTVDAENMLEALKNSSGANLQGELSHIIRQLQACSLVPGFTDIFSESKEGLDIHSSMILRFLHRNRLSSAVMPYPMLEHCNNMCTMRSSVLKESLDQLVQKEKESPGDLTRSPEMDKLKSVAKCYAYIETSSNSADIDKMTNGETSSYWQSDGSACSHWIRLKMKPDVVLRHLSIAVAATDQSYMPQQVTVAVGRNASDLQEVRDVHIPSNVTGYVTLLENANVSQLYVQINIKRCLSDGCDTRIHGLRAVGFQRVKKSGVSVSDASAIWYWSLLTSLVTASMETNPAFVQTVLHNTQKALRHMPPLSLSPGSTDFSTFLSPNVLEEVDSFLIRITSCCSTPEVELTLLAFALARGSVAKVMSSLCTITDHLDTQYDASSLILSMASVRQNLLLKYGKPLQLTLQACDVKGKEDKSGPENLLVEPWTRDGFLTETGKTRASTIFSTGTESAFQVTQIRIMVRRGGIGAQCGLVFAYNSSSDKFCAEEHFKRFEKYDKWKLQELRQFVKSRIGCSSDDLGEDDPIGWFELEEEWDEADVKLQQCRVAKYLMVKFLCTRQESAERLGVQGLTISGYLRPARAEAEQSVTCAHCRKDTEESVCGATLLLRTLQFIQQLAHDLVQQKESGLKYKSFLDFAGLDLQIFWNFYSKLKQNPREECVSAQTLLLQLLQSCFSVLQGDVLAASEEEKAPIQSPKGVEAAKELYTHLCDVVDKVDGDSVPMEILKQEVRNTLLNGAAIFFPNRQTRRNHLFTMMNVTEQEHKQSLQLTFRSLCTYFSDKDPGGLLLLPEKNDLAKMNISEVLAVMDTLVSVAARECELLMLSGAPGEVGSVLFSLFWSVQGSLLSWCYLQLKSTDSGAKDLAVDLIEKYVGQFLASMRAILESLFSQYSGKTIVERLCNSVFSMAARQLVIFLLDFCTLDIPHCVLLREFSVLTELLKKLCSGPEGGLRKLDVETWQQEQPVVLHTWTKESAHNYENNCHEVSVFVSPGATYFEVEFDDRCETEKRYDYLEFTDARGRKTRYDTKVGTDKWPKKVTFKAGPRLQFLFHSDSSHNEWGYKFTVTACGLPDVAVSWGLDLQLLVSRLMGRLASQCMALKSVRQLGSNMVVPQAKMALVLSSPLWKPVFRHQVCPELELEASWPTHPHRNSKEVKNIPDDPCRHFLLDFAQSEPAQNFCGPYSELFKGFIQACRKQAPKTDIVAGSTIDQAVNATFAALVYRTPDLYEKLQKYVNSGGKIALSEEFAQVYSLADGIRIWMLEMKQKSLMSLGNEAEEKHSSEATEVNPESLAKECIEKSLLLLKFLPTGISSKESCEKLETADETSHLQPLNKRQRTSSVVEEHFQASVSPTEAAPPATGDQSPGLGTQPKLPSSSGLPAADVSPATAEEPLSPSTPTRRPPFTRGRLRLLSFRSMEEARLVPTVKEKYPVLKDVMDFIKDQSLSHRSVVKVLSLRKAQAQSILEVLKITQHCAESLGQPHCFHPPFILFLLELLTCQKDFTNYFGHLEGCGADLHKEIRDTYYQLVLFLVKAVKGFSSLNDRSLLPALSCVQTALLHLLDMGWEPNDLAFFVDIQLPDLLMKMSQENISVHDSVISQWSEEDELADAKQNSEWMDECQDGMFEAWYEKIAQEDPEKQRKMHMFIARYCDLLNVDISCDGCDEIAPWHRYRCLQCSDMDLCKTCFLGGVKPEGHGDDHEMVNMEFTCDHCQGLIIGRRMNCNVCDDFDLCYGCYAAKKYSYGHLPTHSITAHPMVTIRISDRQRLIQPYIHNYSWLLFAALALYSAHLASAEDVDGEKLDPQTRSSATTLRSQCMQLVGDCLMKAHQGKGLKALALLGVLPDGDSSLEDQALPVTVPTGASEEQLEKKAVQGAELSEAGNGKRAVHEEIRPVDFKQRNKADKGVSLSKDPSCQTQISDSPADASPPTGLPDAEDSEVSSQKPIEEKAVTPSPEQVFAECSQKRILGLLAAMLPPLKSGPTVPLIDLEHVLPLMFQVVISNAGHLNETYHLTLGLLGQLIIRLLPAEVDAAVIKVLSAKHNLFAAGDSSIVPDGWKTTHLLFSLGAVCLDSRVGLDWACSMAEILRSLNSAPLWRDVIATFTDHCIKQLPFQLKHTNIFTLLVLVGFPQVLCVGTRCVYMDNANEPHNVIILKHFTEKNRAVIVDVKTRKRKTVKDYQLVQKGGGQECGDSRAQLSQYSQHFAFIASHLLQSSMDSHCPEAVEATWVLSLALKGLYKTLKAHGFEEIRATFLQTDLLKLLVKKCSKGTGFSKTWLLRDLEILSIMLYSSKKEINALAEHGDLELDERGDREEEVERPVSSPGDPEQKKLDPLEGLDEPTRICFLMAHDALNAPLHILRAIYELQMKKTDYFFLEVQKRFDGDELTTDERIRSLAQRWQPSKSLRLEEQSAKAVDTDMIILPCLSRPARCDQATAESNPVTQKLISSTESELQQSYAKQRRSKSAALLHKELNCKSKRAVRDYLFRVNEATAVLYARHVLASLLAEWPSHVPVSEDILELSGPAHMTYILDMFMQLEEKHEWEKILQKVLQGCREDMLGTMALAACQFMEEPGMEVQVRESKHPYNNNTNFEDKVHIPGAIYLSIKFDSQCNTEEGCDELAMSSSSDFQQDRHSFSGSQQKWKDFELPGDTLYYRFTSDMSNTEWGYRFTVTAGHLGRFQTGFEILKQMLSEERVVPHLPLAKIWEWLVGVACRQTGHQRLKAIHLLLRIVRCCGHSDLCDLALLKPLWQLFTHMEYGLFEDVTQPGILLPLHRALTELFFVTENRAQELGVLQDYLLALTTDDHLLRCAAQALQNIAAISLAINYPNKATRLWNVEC
UniProt Q8TD26: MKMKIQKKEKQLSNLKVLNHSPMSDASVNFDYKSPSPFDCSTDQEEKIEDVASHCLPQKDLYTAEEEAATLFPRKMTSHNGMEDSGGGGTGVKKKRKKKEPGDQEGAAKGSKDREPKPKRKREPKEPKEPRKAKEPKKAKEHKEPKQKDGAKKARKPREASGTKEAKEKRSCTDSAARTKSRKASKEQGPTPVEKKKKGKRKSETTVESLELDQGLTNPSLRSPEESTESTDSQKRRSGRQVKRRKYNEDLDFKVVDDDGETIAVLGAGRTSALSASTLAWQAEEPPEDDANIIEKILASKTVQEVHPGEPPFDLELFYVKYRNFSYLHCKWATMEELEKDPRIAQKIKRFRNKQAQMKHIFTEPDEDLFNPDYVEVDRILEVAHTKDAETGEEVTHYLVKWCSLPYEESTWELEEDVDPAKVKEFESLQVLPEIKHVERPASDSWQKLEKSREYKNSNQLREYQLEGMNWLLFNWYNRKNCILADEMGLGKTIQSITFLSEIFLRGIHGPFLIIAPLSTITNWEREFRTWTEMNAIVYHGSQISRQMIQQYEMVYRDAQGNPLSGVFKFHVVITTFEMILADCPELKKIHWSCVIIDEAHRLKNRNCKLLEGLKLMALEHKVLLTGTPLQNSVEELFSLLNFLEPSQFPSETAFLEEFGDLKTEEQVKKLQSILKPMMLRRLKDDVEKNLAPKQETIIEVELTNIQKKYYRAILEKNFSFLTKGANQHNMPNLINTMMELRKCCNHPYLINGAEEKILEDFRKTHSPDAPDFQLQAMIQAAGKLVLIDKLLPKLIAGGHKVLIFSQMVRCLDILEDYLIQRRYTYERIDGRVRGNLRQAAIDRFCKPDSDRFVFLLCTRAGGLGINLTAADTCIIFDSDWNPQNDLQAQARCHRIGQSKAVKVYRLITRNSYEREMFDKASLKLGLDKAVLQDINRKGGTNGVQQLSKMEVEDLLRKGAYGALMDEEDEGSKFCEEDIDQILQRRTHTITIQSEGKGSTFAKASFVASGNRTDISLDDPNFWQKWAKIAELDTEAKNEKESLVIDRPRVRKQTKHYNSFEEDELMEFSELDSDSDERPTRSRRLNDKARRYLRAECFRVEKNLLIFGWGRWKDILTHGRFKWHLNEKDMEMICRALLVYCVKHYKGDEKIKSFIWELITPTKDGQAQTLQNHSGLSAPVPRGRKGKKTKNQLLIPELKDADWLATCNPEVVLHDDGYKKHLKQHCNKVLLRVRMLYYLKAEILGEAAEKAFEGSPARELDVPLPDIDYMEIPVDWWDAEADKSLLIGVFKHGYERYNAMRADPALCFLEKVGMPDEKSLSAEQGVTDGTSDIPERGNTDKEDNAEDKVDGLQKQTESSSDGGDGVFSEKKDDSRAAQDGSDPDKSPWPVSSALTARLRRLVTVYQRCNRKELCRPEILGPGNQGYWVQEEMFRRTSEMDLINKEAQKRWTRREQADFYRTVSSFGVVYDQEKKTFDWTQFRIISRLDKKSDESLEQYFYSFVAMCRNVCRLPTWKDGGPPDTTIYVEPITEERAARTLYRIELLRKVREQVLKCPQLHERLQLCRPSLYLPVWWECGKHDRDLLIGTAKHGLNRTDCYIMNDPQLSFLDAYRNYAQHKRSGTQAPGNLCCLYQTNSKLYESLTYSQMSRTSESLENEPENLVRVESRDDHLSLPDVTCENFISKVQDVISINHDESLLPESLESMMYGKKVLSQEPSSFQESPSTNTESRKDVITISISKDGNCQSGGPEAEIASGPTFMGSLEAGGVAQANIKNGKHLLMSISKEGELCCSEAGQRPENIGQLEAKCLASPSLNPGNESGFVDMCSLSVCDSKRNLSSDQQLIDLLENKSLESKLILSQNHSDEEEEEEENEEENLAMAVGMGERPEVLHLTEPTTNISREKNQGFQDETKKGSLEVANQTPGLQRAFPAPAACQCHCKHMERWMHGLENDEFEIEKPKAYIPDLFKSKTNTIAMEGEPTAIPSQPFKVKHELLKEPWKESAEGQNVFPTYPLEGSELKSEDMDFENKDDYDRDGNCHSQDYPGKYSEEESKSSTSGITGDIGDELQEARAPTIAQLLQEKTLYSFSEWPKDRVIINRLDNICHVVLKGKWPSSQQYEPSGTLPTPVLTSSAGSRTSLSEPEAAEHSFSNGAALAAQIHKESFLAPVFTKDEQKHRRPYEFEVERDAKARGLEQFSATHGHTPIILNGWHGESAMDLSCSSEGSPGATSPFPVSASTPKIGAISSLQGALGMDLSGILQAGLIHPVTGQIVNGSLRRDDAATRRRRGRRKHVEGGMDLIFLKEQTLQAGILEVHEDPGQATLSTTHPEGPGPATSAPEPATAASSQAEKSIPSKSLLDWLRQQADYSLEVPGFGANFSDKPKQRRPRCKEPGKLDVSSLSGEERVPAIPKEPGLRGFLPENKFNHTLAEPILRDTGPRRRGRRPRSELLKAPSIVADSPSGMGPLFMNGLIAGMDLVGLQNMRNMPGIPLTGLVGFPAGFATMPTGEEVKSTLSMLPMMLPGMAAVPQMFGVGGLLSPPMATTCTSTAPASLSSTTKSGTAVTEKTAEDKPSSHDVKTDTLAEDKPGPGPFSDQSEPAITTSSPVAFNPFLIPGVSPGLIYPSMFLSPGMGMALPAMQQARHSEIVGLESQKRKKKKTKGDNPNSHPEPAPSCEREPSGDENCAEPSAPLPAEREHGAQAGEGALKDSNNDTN

This assay deals with Zinc Finger ZZ-Type And EF-Hand Domain Containing 1 (ZZEF1) (human (endogenous in MDA-MB-231)) (UniProt O43149). Put plainly: affinity purification with mass spectrometry.

Consider “Chromodomain Helicase DNA Binding Protein 6 (CHD6) (from UniProt Q8TD26 1-2715)”, for which the binding result is listed as “binds”.

For the origin of these results see article doi:10.1101/2025.04.26.650725.
